The results in this text go back to PubChem BioAssay AID1487 (National Center for Advancing Translational Sciences (NCATS), 2009).

Several values for one entry are separate records, joined by “and”; a condition that tells them apart may be missing. Equal entries are not always repeated. The list shows a part of the results. Shown are side measurements of this screen, not its main read-out; they come without a call. Most of these compounds were active or inconclusive in the main read-out, so they are no random draw. Words in brackets tell the shape of the fitted curve; partial curves, single points and poor fits give uncertain potencies.

This assay can be described thus: qHTS Assay for Modulators of Lamin A Splicing. Particulars: HeLa LMNA splicing GFP/RFP minigene ratio, 48 h. The procedure, abridged:
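Read-out is the ratio of GFP to DsRed2 object intensity, acquired by 488 nm laser-scanning cytometry on HeLa lamin A-EGFP minigene reporter cells. Compound incubation 48 hrs at 37 °C in Opti-MEM with 2% FBS; DMSO 0.5% final.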

Setting [1] is: measured here: GFP splicing reporter channel.
Where [2] appears, read: measured here: RFP viability control channel.

In the case of `CC(C)CNC(=O)c1cccc(NC(=O)CCc2ccccc2)c1`, the AC50 (usually the midpoint of the concentration-response curve, whichever way the signal moves) by setting is: under setting [1], 0.1 µM [falling, full curve, poor fit]; under setting [2], 0.158 µM [falling, full curve, poor fit].
As to `CCOC(=O)N1CCC(Nc2c(Nc3cccc(CC)c3)c(=O)c2=O)CC1`, the AC50 was 14.1 µM [rising, single point] under setting [1] and 15.8 µM [rising, partial curve] under setting [2].
As to `COc1ccc(-c2csc(-n3ncc(-c4cccs4)c3N)n2)cc1`, the AC50 under setting [2] is 25.1 µM [falling, single point].
With `O=C(COC(=O)CC1c2ccccc2CCN1S(=O)(=O)c1ccc(F)cc1)Nc1ccccc1` (centres undefined), the AC50 under setting [1] was 6.31 µM [falling, single point].
For the compound `C/C(=N\NC(=O)c1ccccc1)c1nc2ccccc2n1C`, the AC50 was 11.2 µM [rising, partial curve] under setting [1] and 17.8 µM [rising, single point] under setting [2].
For `COC(=O)c1ccc(OC)c(CSc2nnc(COc3ccc(OC)cc3)o2)c1`, the AC50 under setting [2] was 35.5 µM [rising, single point].
For `COc1ccc(CCNC(=O)c2ccc3ccccc3n2)cc1OC`, under setting [1], the AC50 is 11.2 µM [falling, single point].
Take `O=C(N/N=C/c1cccc(Oc2ccccc2)c1)c1ccccc1Br`: under setting [1], the AC50 is 35.5 µM [rising, single point].
For the compound `c1cnc2ncc3sccc3c2c1`, under setting [2], the half-maximal activity concentration (AC50) is 14.1 µM [rising, single point].
With `CSCc1cc(N(C)C)nc(SCc2ccc(Cl)c(Cl)c2)n1`, the AC50 is 14.1 µM [rising, partial curve] under setting [1] and 25.1 µM [rising, single point] under setting [2].
In the case of `C/C(=N/NS(=O)(=O)c1ccc(C)cc1)c1cccc(NC(=O)c2cccc(Cl)c2)c1`, under setting [1], the AC50 was 22.4 µM [falling, single point].
For `O=C(NN=C1CCCCCC1)c1c[nH]c2ccccc12`, the half-maximal activity concentration (AC50) under setting [2] was 0.891 µM [rising, full curve, poor fit].
In the case of `COC(=O)c1ccc(C)c(NS(=O)(=O)c2ccc(OC)c(OC)c2)c1`, the AC50 under setting [1] is 5.62 µM [falling, single point].
In the case of `CCc1cc2c(=O)c(-c3ccc4c(c3)OCCO4)c(C)oc2cc1OS(C)(=O)=O`, under setting [2], the AC50 is 12.6 µM [rising, partial curve, poor fit].
Take `Cc1ccc2nc(N3CC(=O)Nc4ccccc43)nc(-c3ccccc3)c2c1`: under setting [2], the AC50 is 35.5 µM [rising, single point].
Consider `CCOc1ccc2nc(NCCNC(=O)C(C)C)c(C)cc2c1`, for which the AC50 under setting [1] is 35.5 µM [rising, single point].
In the case of `Cc1nnc(SC(C(=O)Nc2cc(Cl)cc(Cl)c2)c2ccccc2)[nH]c1=O` (centres undefined), the AC50 under setting [1] is 1.78 µM [falling, full curve, poor fit].
Turning to `Cc1ccc(-c2ccc(SCC(=O)Nc3ccc4c(c3)OCCO4)nn2)cc1`, under setting [2], the AC50 was 25.1 µM [rising, single point].
`CNc1ccccc1C(C)(C)c1cc(-c2cccc(OC)c2)no1`: the AC50 under setting [2] is 11.2 µM [rising, partial curve].
Take `CC(=O)N1CCN=C1SCc1ccc(Br)cc1`: under setting [2], the AC50 was 35.5 µM [rising, single point].
As to `CCOc1ccc2nc(SCC(=O)Nc3ccc4c(c3)OCCO4)[nH]c2c1`, the AC50 under setting [2] is 35.5 µM [rising, single point].
On the same count and under the same terms, the figure for `Cc1cc(C=NCCCO)c(C)n1-c1cc(Cl)ccc1Cl` is 2.51 µM [falling, partial curve]; for `Fc1ccc(N2CCN(Cc3nnc(-c4ccccc4)o3)CC2)cc1` it is 20 µM [rising, single point]; for `CCOC(=O)/C(=C\c1cccc(O)c1)c1nc2sc(C)c(C)c2c(=O)[nH]1` it is 11.2 µM [rising, partial curve].
For `CCn1cc(C(C)NC(=O)COc2ccc(Cl)cc2C)c(C)n1` (centres undefined), the AC50 under setting [2] was 35.5 µM [rising, single point].
For `O=C1C2C3C=CC(C3)C2C(=O)N1Cc1ccc(CN2C(=O)C3C4C=CC(C4)C3C2=O)cc1` (centres undefined), under setting [2], the AC50 is 15.8 µM [rising, single point].
In the case of `Cc1nc2sc(C(=O)Nc3ccccc3Cc3ccccc3)c(C)c2c(=O)[nH]1`, the AC50 under setting [1] is 3.16 µM [falling, partial curve] and the AC50 under setting [2] was 3.55 µM [falling, partial curve].
With `COc1ccc(-c2cc(OC(=O)c3ccc(F)cc3)c3c(C)oc(C)c3c(=O)c2)cc1`, the AC50 under setting [1] is 14.1 µM [falling, single point].
As for `O=C(NCCO)c1ccc(Oc2ccc(C(F)(F)F)cc2[N+](=O)[O-])cc1`, the AC50 under setting [1] was 5.62 µM [rising, single point].
Turning to `C=CCn1cnc2c(c1=O)c1nc3ccccc3nc1n2/N=C/c1cccc(OC)c1`, the AC50 was 12.6 µM [falling, partial curve] under setting [1] and 22.4 µM [falling, partial curve] under setting [2].
For the compound `COCCSc1ccccc1C(=O)Nc1ccccc1C#N`, the AC50 under setting [1] is 0.282 µM [rising, partial curve].
With `CCCOc1ccccc1C1CC(=O)NC2=C1C(=O)CCC2` (centres undefined), the AC50 under setting [2] was 12.6 µM [rising, single point].
`O=C(NCc1ccc(Cl)cc1)c1cc2c(nc3sccn32)s1`: under setting [2], the AC50 is 10 µM [rising, partial curve, poor fit].
In the case of `N=c1c2c(-c3ccccc3)c(-c3ccccc3)n(Cc3ccco3)c2ncn1CCCN1CCOCC1`, the AC50 under setting [2] is 12.6 µM [rising, partial curve].
Take `COCCCC/C(=N\OCCN)c1ccc(C(F)(F)F)cc1`: the half-maximal activity concentration (AC50) under setting [1] is 501 nM [falling, full curve, poor fit] and 63.1 nM [rising, full curve, poor fit]; the AC50 under setting [2] was 0.251 µM [falling, full curve].
For `CCN(CC)c1ccc(NC(=O)CN2C(=O)CSc3ncccc32)c(C)c1`, the AC50 under setting [2] is 5.01 µM [rising, full curve].
In the case of `CCOc1cc(S(=O)(=O)NCCc2ccccc2C)c(OCC)cc1-n1cnnn1`, under setting [2], the AC50 was 12.6 µM [rising, partial curve, poor fit].
Consider `CCOC(=O)COc1cccc2c(=O)n(CC(=O)NCCc3ccccc3)ccc12`, for which, under setting [2], the AC50 was 0.631 µM [falling, single point].
Take `CC(C)n1cc(/C=C(\C#N)S(=O)(=O)c2ccccc2)c2ccccc21`: the AC50 runs as follows: under setting [1], 5.01 µM [rising, full curve]; under setting [2], 7.08 µM [rising, partial curve].
As for `COc1ccc(N(C(=O)c2ccccc2OC(C)=O)C(C)C2CC2)cc1` (centres undefined), under setting [1], the half-maximal activity concentration (AC50) was 15.8 µM [rising, single point].
For `COc1ccc2nc(Sc3c([N+](=O)[O-])nc(C)n3Cc3ccccc3)[nH]c2c1`, the AC50 under setting [1] is 22.4 µM [falling, single point] and the AC50 under setting [2] was 35.5 µM [falling, single point].
With `Cc1cccc(C(=O)NCC(=O)OCc2cc(=O)n3nc(C)sc3n2)c1`, the AC50 under setting [1] is 3.55 µM [falling, partial curve] and the concentration at half-maximal activity (AC50) under setting [2] is 0.891 µM [falling, full curve, poor fit].
On to `O=C(Nc1ccc2nn(-c3ccccc3)nc2c1)c1ccc2c(c1)OCCO2`, for which the AC50 under setting [1] was 8.91 µM [rising, partial curve] and the AC50 under setting [2] was 15.8 µM [rising, partial curve].
As for `Cc1cc(OCc2cn3cccnc3n2)ccc1Cl`, the AC50 under setting [1] is 5.62 µM [falling, single point].
Regarding `CSc1ccccc1-c1nnc(-c2ccccc2)o1`, the AC50 under setting [2] is 20 µM [rising, single point].
Take `CC1(c2ccc([N+](=O)[O-])cc2)CC(C)(C)N(C(=O)c2ccccc2)c2ccccc21` (centres undefined): the AC50 reads like this: under setting [1], 3.55 µM [rising, single point]; under setting [2], 3.98 µM [rising, partial curve].
For `COc1ccc2ccc3c(c2c1)N=C[C@]1(O3)N(C)c2ccccc2C1(C)C`, the AC50 under setting [2] is 0.0355 µM [falling, single point].
As to `Clc1ccc2[nH]c(-c3ccccc3)cc2c1`, under setting [2], the AC50 was 31.6 µM [rising, single point].
Turning to `CN(C)c1ncnc2ccc(-c3ccoc3)cc12`, the AC50 under setting [1] was 14.1 µM [falling, partial curve] and the AC50 under setting [2] is 12.6 µM [falling, partial curve].
With `Cc1ccc(-c2csc(NC(=O)C3=NN(c4ccccc4)C(=O)CC3)n2)cc1`, the AC50 runs as follows: under setting [1], 5.62 µM [rising, single point]; under setting [2], 14.1 µM [rising, single point].
On to `COc1ccc(/C=N/NC(=O)C2C(C=C(Cl)Cl)C2(C)C)c(OC)c1` (centres undefined), for which the AC50 runs as follows: under setting [1], 0.0631 µM [rising, full curve, poor fit]; under setting [2], 0.0794 µM [rising, full curve, poor fit].
As for `Cc1ccc(C(=O)c2ccc(C)cc2)cc1`, the AC50 under setting [2] was 35.5 µM [falling, single point].
On the same count and under the same terms, the figure for `CCOc1cccc2cc(-c3nc(-c4ccc(Cl)cc4)c(C)s3)c(=O)oc12` is 0.00708 µM [falling, full curve, poor fit]; for `O=C(Nc1ccccc1)Nc1nnc(CSCc2ccccc2Cl)s1` it is 15.8 µM [rising, single point]; for `O=C(COc1ncnc2c1cnn2-c1ccccc1)Nc1ccc(S(=O)(=O)N2CCCCC2)cc1` it is 35.5 µM [rising, single point].
Still for that read-out and setting: the figure for `COc1ccc2c(c1)-c1nc(NC(=O)c3cccs3)sc1CC2` is 22.4 µM [falling, single point].
For `COc1ccc(-c2ccc(NS(=O)(=O)c3ccccc3Cl)cc2)nn1`, the AC50 under setting [2] was 31.6 µM [rising, single point].
For the compound `O=C(CSc1n[nH]c(-c2ccc(S(=O)(=O)N3CCCCC3)cc2)n1)Nc1nccs1`, the AC50 under setting [2] is 12.6 µM [rising, single point].
For `Fc1ccccc1SCc1nnc(-c2ccccc2Br)o1`, the AC50 under setting [2] was 35.5 µM [rising, single point].
